Residue numbers refer to the chain shown, from its start. Construct, isoform or probe ends are uncertain for at least one entry. Results from cells or extracts need not show a direct contact. A negative result means that nothing was seen under these conditions. For some of these results: Protein sequences can lack the tags named with them.
Tests used:
Test in all cases: pull-down (biotinylated oligo, western blot)
[1] = biological target: T1, yTop1 WT (Saccharomyces cerevisiae (YPH45-derived)) (UniProt P04786); settings: Oligos folded in 10 mM Tris pH 7.5, 100 mM KCl, binding in lysis buffer B: 50 mM HEPES pH 7.5, 1 mM EDTA, 300 mM KCl, 10% glycerol, 0.05% NP40, 1 mM PMSF, 1 mM DTT, protein in an extract, protein details: C-terminal 3XFLAG
T1 sequence (looked up, limits assumed): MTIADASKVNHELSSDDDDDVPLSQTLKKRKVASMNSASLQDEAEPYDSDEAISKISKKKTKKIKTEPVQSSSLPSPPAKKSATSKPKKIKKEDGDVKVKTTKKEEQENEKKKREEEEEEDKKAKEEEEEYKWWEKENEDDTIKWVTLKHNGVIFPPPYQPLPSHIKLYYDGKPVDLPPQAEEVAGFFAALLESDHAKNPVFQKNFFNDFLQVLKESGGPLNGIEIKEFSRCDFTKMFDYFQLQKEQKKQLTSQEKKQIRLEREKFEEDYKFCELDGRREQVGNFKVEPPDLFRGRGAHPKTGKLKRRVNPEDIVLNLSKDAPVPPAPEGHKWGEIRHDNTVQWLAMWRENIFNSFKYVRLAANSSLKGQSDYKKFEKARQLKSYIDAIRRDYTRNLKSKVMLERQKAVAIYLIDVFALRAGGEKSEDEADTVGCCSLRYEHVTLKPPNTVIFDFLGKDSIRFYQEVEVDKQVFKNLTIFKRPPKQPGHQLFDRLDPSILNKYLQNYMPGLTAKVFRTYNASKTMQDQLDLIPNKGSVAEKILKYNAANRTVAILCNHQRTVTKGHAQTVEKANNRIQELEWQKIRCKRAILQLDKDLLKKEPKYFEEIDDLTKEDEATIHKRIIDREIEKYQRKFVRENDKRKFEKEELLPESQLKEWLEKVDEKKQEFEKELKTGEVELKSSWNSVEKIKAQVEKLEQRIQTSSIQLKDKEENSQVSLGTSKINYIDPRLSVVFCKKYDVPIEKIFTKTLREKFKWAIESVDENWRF

[2] = biological target: T2, yTop1S733E (Saccharomyces cerevisiae (YPH45-derived)) (UniProt P04786); settings: Oligos folded in 10 mM Tris pH 7.5, 100 mM KCl; binding in lysis buffer B: 50 mM HEPES pH 7.5, 1 mM EDTA, 300 mM KCl, 10% glycerol, 0.05% NP40, 1 mM PMSF, 1 mM DTT; protein in an extract; protein details: C-terminal 3XFLAG; folded or branched DNA
T2 sequence (looked up, limits assumed): T1 sequence (looked up, limits assumed) with S733E

[3] = biological target: T3, yTop1Y727F (Saccharomyces cerevisiae (YPH45-derived)) (UniProt P04786); settings: Oligos folded in 10 mM Tris pH 7.5, 100 mM KCl, binding in lysis buffer B: 50 mM HEPES pH 7.5, 1 mM EDTA, 300 mM KCl, 10% glycerol, 0.05% NP40, 1 mM PMSF, 1 mM DTT, protein in an extract, protein details: C-terminal 3XFLAG
T3 sequence (looked up, limits assumed): T1 sequence (looked up, limits assumed) with Y727F

[4] = biological target: yTop1Y740Stop (Saccharomyces cerevisiae (YPH45-derived)) (UniProt P04786); settings: Oligos folded in 10 mM Tris pH 7.5, 100 mM KCl, binding in lysis buffer B: 50 mM HEPES pH 7.5, 1 mM EDTA, 300 mM KCl, 10% glycerol, 0.05% NP40, 1 mM PMSF, 1 mM DTT, protein in an extract, residues 1-739, protein details: C-terminal 3XFLAG

GAGCTGGGGTGAGCTGGGCTGAGCTGGGGTGAGCTGGGCTGAGCT [SμG]
binding result ([1]; folded or branched DNA): binds
binding result [2]: no binding
binding result ([3]; folded or branched DNA): binds
binding result ([4]; folded or branched DNA): binds

GAGCTGAGGTGAGCTGGGCTGAGCTGAGGTGAGCTGGGCTGAGCT [M1]
binding result ([1]; single-stranded DNA): no binding
binding result ([3]; single-stranded DNA): no binding
binding result ([4]; single-stranded DNA): no binding
